Data from PubChem BioAssay AID504444 (National Center for Advancing Translational Sciences (NCATS), 2011).
Hit rate of the full screen: of about 360,000 compounds, about 7,500 (2.1%) were called active. This list was built around the results that the source calls inconclusive (neither active nor inactive); the mix of calls is not that of the screen. Calls come from the whole dose curve; as a rule, active = well fitted inhibition curve with a large enough effect; inconclusive = small, poorly fitted or top-dose-only effect, or effect the other way; inactive = flat fitted curve, though single readings scatter. Potencies of inconclusive entries are doubtful fits and often do not repeat.

Assay: Nrf2 qHTS screen for inhibitors; note: nearly all actives have a fitted effect of over 60% in size
Conditions: A549 ARE-Fluc reporter, luciferase luminescence, 18-24 h; series mostly up to 46 µM
In short: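 Nrf2 function is reported as luminescence of an ARE-controlled luciferase in A549 cells. Compounds were tested at several concentrations, and a CellTiter-Fluor read on the same wells flagged cytotoxicity.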
Potency is the fitted concentration of half-maximal effect.

**Q.** With `Cc1ccc(C)c(NC(=S)NCCCN2CCOCC2)c1` as the compound, how does the Potency read?
**A.** inconclusive: 11.6 µM [falling, partial curve, poor fit]

**Q.** Which Potency does the source give for `COc1ccccc1NC(CC(=O)c1ccccc1)C(=O)OCC(=O)c1ccc(F)cc1` (stereo unspecified) here?
**A.** inconclusive: 20.6 µM [activator, partial curve]

**Q.** With `O=C(NC1CCCCC1)C1CC(=O)N(c2ccccc2)C1` (stereo unspecified) as the compound, how does the Potency read?
**A.** inconclusive: 32.6 µM [activator, single point]

**Q.** With `Cc1sc2c(c1C)CN(CCN1CCOCC1)CN2C(=O)c1ccccc1` as the compound, how does the Potency read?
**A.** inconclusive: 29.1 µM [activator, single point]

**Q.** Which Potency does the source give for `COc1ccc(COC(=O)c2cccc(S(=O)(=O)N3CCN(C(C)=O)CC3)c2)cc1F` here?
**A.** inconclusive: 20.6 µM [falling, single point]

**Q.** With `COc1cccc(N2C(=O)C(CC(=O)Nc3ccc(F)cc3)N(CCC3=CCCCC3)C2=O)c1` (stereo unspecified) as the compound, how does the Potency read?
**A.** inconclusive: 29.1 µM [falling, single point]

**Q.** For `COc1cccc(NC(=O)CN2C(=O)COc3ccc(S(=O)(=O)N4CCCCCC4)cc32)c1`, which Potency is on record?
**A.** inconclusive: 32.6 µM [falling, single point]

**Q.** With `O=C1C2=C(Nc3ccccc3SC2c2ccc(Cl)c(Cl)c2)c2ccccc21` (stereo unspecified) as the compound, how does the Potency read?
**A.** inconclusive: 29.1 µM [falling, single point]

**Q.** Which Potency does the source give for `N#Cc1cc2c(nc1SCC(O)CS(=O)(=O)Cc1ccccc1)CCCC2` (stereo unspecified) here?
**A.** inconclusive: 29.1 µM [falling, single point]

**Q.** Which Potency does the source give for `O=C(CN(c1cccc(C(F)(F)F)c1)S(=O)(=O)c1ccc(Cl)c([N+](=O)[O-])c1)NCc1ccc(F)cc1` here?
**A.** inactive

**Q.** For `COc1ccccc1NC(=O)c1ccc(NC(=O)CN2CCCCC2)cc1`, which Potency is on record?
**A.** inactive

**Q.** For `CCCCOC(=O)C1C2C=C[C@]3(CN(C(C)c4ccc(OC)cc4)C(=O)[C@H]13)O2` (stereo partly specified), which Potency is on record?
**A.** inconclusive: 8.2 µM [activator, partial curve, poor fit]

**Q.** For `Nc1c(S(=O)(=O)c2cccs2)c2nc3ccccc3nc2n1/N=C/c1cccc(O)c1`, which Potency is on record?
**A.** active: 25.9 µM

**Q.** For `COc1ccc(C2=NN(c3nc(C(=O)O)cs3)C(O)(C(F)(F)F)C2)c(OC)c1` (stereo unspecified), which Potency is on record?
**A.** inactive

**Q.** Which Potency does the source give for `COc1ccc(N2CCN(C(=O)CSc3nnnn3-c3ccc4c(c3)OCCO4)CC2)cc1` here?
**A.** active: 16.4 µM

**Q.** Which Potency does the source give for `Cc1ccc(CSCc2nnc(SCC(=O)N3CCN(c4ccccc4)CC3)n2C)cc1` here?
**A.** inconclusive: 16.4 µM [falling, single point]

**Q.** Which Potency does the source give for `COc1ccc(-n2nnnc2SCC(=O)NCc2cccs2)cc1` here?
**A.** inactive

**Q.** Which Potency does the source give for `O=C(NCc1cccnc1)C(=O)NCC(c1ccco1)N1CCN(c2ccccc2)CC1` (stereo unspecified) here?
**A.** inconclusive: 13 µM [falling, partial curve, poor fit]

**Q.** Which Potency does the source give for `CC1(C)CC(=O)C(N=Nc2cccc([N+](=O)[O-])c2)=C(O)C1` here?
**A.** inactive

**Q.** For `CCOc1ccccc1-n1c(CN2CCN(C(=O)c3ccco3)CC2)nc2ccccc2c1=O`, which Potency is on record?
**A.** active: 16.4 µM

**Q.** With `c1ccc(Cn2c(-c3ccccc3)c[n+]3c2SCCC3)cc1` as the compound, how does the Potency read?
**A.** active: 8.2 µM

**Q.** With `CC1CCN(CC(=O)Nc2ccc(Cl)cc2[N+](=O)[O-])CC1` as the compound, how does the Potency read?
**A.** inconclusive: 20.6 µM [activator, single point]

**Q.** Which Potency does the source give for `Cc1cc(NC(=O)C2CCC(CNS(=O)(=O)c3ccc(Br)s3)CC2)ccc1Br` (stereo unspecified) here?
**A.** inconclusive: 29.1 µM [falling, single point]

**Q.** Which Potency does the source give for `CCc1nn2c(-c3ccco3)ccnc2c1-c1ccccc1` here?
**A.** inconclusive: 9.2 µM [activator, partial curve]

**Q.** With `CN(C)c1ccc(/C=N/NC(=O)CCCCCNC(=O)c2ccccc2)cc1` as the compound, how does the Potency read?
**A.** inconclusive: 25.9 µM [activator, partial curve, poor fit]

**Q.** With `O=C(NCCN1CCOCC1)c1cc(-c2ccccc2)on1` as the compound, how does the Potency read?
**A.** inconclusive: 29.1 µM [activator, single point]

**Q.** For `Cc1cccc(C(=O)NNC(=O)c2ccccc2Br)c1`, which Potency is on record?
**A.** inconclusive: 18.4 µM [activator, partial curve]

**Q.** Which Potency does the source give for `Cc1ccc(CNC(=O)c2cc(C3CC3)nc3c2c(C)nn3-c2cccc(Cl)c2C)cc1` here?
**A.** inconclusive: 20.6 µM [falling, partial curve]

**Q.** Which Potency does the source give for `C=CCOC(=O)c1ccc(N2CCN(c3ccccc3)CC2)nc1` here?
**A.** inconclusive: 0.0046 µM [activator, full curve, poor fit]

**Q.** Which Potency does the source give for `C=C1CCN(C(CC(C)C)C(=O)NCCCc2ccccc2)S(=O)(=O)c2ccccc21` (stereo unspecified) here?
**A.** inactive

**Q.** For `COC(=O)[C@@]12CCCCN1[C@H](c1ccc(SC3CCCCC3)cc1)[C@@H]1C(=O)N(C)C(=O)[C@@H]12`, which Potency is on record?
**A.** inconclusive: 5.17 µM [falling, partial curve, poor fit]

**Q.** With `Cc1ccc(NC(=O)c2nc(S(=O)(=O)Cc3cccc(C)c3)ncc2Cl)cc1` as the compound, how does the Potency read?
**A.** inconclusive: 29.1 µM [falling, partial curve, poor fit]

**Q.** With `CCCN(CCC)C(=O)c1c[nH]c2ccc(S(=O)(=O)Nc3cc(C)cc(C)c3)cc2c1=O` as the compound, how does the Potency read?
**A.** inconclusive: 0.0046 µM [falling, full curve, poor fit]

**Q.** Which Potency does the source give for `CCOC(=O)c1c(NC(=O)CN2CCC(C)CC2)sc(C)c1C` here?
**A.** inconclusive: 29.1 µM [activator, single point]

**Q.** With `CNC(=O)c1ccsc1NC(=O)c1sc2ccccc2c1Cl` as the compound, how does the Potency read?
**A.** inconclusive: 3.26 µM [activator, partial curve]

**Q.** Which Potency does the source give for `O=C(c1cccc(OC2CCN(Cc3cc(F)cc(F)c3)CC2)c1)N1CCCC1` here?
**A.** inconclusive: 29.1 µM [falling, single point]

**Q.** For `CC[C@]12c3[nH]c4cc(CCC(=O)N(C)C)ccc4c3CCN1C(=O)[C@@H](CC(=O)NCCC1=CCCCC1)C[C@@H]2C(=O)N1CCN(C(=O)c2ccco2)CC1`, which Potency is on record?
**A.** inactive

**Q.** Which Potency does the source give for `COc1ccc(NC(=O)CN(C)C(=O)c2cccc(S(=O)(=O)N3CCCc4ccccc43)c2)cc1` here?
**A.** inactive

**Q.** For `Cc1c(NC(=O)c2cccs2)cccc1C(=O)O`, which Potency is on record?
**A.** inconclusive: 16.4 µM [activator, single point]

**Q.** Which Potency does the source give for `CCOC(=O)c1cc2sccc2n1CC(=O)c1ccc2c(c1)OCCO2` here?
**A.** inconclusive: 14.6 µM [falling, partial curve, poor fit]

**Q.** Which Potency does the source give for `CN(C)c1ccnc(Oc2ccc(Cl)cc2)c1C#N` here?
**A.** inactive
